The list is a part of this screen's results and no random one: its compounds were picked by chemical class. Not every dose and run of a compound is shown. T/C: endpoint of the treated group in % of that of the vehicle group. For survival time, the PubChem record calls one and a half times the control and up active, and a quarter to a half above the control has no call in these data; cut-offs in other NCI protocols can differ. Some T/C values are marked as having no survivor count here; that says nothing about deaths at the dose. Schedule codes are those of the source, taken here to give the interval after Q, in days (D) or hours (H), and the number of doses after X.
Tested on: C57BL/6 mice, intracerebral ependymoblastoma, median survival T/C
Test: NCI In Vivo Anticancer Drug Screen. Data for tumor model Ependymoblastoma (intracerebral) in C57BL/6 mice
Settings: T/C endpoint: median survival time, schedule: Q01DX005 (ip), vehicle: saline, higher T/C = longer survival
Method: The antitumor activity of compounds was measured in mice bearing transplantable tumors. Survival or tumor size were measured and the results are expressed as the measurement made in the treated group (T) divided by the measurement made in the vehicle treated control group (C). The tumor model used in this assay is Ependymoblastoma (intracerebral) in C57BL/6 mice

## Cc1ccc(C(=O)O)cc1N(CCCl)CCCl
dose: 3.12 mg/kg/injection
  T/C: 101 % of control [survivor count not shown]
dose: 6.25 mg/kg/injection
  T/C: 94 % of control [survivor count not shown]
dose: 12.5 mg/kg/injection
  T/C: 102 % of control [survivor count not shown]
